Results are given in words; binding and its absence hold for the method and conditions named. Binding seen in cells or lysates may run through a third protein. A yes stands for co-enrichment or nearness to the bait. Other partners may have been found.
Target: FLAG-tagged NEDD4L (neural precursor cells expressed developmentally downregulated 4-like protein), stably expressed in HCT116 cells (UniProt Q96PU5)
Experiment: affinity purification with mass spectrometry; interaction MS analysis in HCT116 cells stably expressing FLAG-tagged NEDD4L

The chains behind the UniProt entries cited, without tags or fusion partners.
UniProt Q96PU5: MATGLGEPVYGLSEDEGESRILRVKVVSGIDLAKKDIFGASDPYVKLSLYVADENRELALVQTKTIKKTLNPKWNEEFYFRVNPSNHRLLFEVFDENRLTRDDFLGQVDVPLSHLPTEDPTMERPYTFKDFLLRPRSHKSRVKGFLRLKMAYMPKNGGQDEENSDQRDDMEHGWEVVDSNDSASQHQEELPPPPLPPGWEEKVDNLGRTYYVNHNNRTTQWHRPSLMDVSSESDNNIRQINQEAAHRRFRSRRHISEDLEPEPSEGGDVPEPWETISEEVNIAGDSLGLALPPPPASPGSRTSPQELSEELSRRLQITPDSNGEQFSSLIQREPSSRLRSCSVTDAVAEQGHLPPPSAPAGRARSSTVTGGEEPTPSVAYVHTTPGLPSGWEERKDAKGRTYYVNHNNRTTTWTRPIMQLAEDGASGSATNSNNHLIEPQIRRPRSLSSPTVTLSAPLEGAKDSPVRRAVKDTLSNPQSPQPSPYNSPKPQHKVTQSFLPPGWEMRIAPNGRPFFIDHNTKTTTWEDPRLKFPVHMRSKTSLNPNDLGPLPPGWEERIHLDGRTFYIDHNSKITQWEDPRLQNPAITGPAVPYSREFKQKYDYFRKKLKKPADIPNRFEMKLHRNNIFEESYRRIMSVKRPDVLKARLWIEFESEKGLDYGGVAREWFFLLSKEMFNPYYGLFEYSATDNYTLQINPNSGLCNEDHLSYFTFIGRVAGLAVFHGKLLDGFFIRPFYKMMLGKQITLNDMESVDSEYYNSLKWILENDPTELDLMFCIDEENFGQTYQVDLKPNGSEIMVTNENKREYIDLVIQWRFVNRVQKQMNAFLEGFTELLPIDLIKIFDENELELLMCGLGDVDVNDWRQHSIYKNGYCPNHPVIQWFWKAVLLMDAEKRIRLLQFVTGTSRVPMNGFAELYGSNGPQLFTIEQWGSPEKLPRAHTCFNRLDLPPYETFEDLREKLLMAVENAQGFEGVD

binding: binds
Substance: solute carrier family 3 member 2 (SLC3A2), endogenous in HCT116 cells (from UniProt P08195 1-529)

From PMC11785928
